For 84 molecules, growth inhibition results are on record in the supplement of paper PMC3047530.

The structures appear in SMILES notation. This is one part of the list. Most values come without repeats; read them as rough.

In the assay the test system is Geomyces destructans. Description: growth inhibition relative to DMSO control; higher = stronger growth inhibition. The following applies: 10 µM; 15 °C; incubation time 10 days.
On to `CC(=O)O[C@H]1C[C@@H](OC(C)=O)C(C)(C)C2C[C@@H](OC(C)=O)[C@]3(C)C(CC[C@@]4(C)[C@H](c5ccoc5)C(=O)[C@H]5O[C@]543)[C@]21C` (some centres undefined), for which the growth inhibition was -6.96%.

Regarding `CCCN(CCC)c1c([N+](=O)[O-])cc(C(F)(F)F)cc1[N+](=O)[O-]`, the growth inhibition was 2.16%.

Consider `C=C(C)[C@H]1CN[C@H](C(=O)O)[C@H]1CC(=O)O`, for which the growth inhibition is -6.12%.

Regarding `C[C@@H]1CC[C@@]2(OC1)O[C@H]1[C@@H](O)[C@H]3[C@@H]4CC[C@H]5C[C@@H](O[C@@H]6O[C@H](CO)[C@H](O[C@@H]7O[C@H](CO)[C@@H](O)[C@H](O[C@@H]8OC[C@@H](O)[C@H](O)[C@H]8O)[C@H]7O[C@@H]7O[C@H](CO)[C@H](O)[C@H](O[C@@H]8O[C@H](CO)[C@@H](O)[C@H](O)[C@H]8O)[C@H]7O)[C@H](O)[C@H]6O)[C@H](O)C[C@]5(C)[C@H]4CC[C@]3(C)[C@H]1[C@@H]2C`, the growth inhibition was 84.2%.

With `CC(C)N(C(=O)CCl)c1ccccc1`, the growth inhibition amounted to 19.2%.

`COc1cc2c(cc1OC)C(=O)c1ccc(OC)c(OC)c1OCC(=O)C2`: the growth inhibition was determined as 17.5%.

Take `Cc1cc(O)ccc1Cl`: the growth inhibition was determined as 3.19%.

Turning to `C=C[C@H]1CN2CC[C@H]1C[C@H]2[C@H](OC(=O)OCC)c1ccnc2ccc(OC)cc12`, the growth inhibition was -39.1%.

Consider `CC(C)=CCCC1(C)C=Cc2c(O)c3c(c(CC=C(C)C)c2O1)OC12C(CC4CC1C(C)(C)OC2(C/C=C(/C)C(=O)O)C4O)C3=O` (centres undefined), for which the growth inhibition was -14.9%.

With `CC[C@H]1CN2CC[C@H]1C[C@@H]2[C@@H](O)c1ccnc2ccc(OC)cc12`, the growth inhibition was -27.4%.

Regarding `CC(C)N(CCC(C(N)=O)(c1ccccc1)c1ccccn1)C(C)C` (centres undefined), the growth inhibition is -6.39%.

Consider `COC(=O)/C(C)=C\CC12OC(C)(C)C3CC(C=C4C(=O)c5c(OC)c6c(c(CC=C(C)C)c5OC431)OC(C)(CCC=C(C)C)C=C6)C2=O` (centres undefined), for which the growth inhibition was -6.9%.

In the case of `CC[C@@]1(O)C[C@H](O[C@H]2C[C@H](N(C)C)[C@H](O)[C@H](C)O2)c2c(cc3c(c2O)C(=O)c2c(O)cccc2C3=O)[C@H]1C(=O)OC`, the growth inhibition was -25%.

Regarding `COP(N)(=O)SC` (centres undefined), the growth inhibition is -11.7%.

As to `C[C@H](N)[C@H](O)c1ccc(O)c(O)c1`, the growth inhibition amounted to 0.391%.

For `N[C@@H](Cc1ccc(N(CCCl)CCCl)cc1)C(=O)O`, the growth inhibition is -17.1%.

Take `CCN1C[C@]2(C)CC[C@H](OC)[C@@]34C1[C@]1(OCO[C@@]15C[C@H](OC)[C@H]1C[C@]3(O)[C@@H]5[C@H]1OC)[C@@H](OC(C)=O)[C@H]24`: the growth inhibition is -23.3%.

For the molecule `CC(C)=CCOc1c2occc2cc2ccc(=O)oc12`, the growth inhibition was -3.8%.

As to `CNC(=O)O/N=C/C(C)(C)SC`, the growth inhibition is -7.74%.

Regarding `O=[N+]([O-])c1cc(O)c(O)c([N+](=O)[O-])c1`, the growth inhibition is -14.1%.

For `CN1[C@@H]2CC[C@H]1C[C@@H](OC(=O)[C@H](CO)c1ccccc1)C2`, the growth inhibition is -2.36%.

With `CCOP(=S)(OCC)SCSP(=S)(OCC)OCC`, the growth inhibition is -14.9%.

Take `ClC1=C(Cl)C2(Cl)C3C(Cl)C(Cl)CC3C1(Cl)C2(Cl)Cl` (centres undefined): the growth inhibition was -7.29%.

Consider `COc1c2c(c(CC=C(C)C)c3oc(=O)c(-c4ccc(O)cc4)c(O)c13)OC(C)(C)C=C2`, for which the growth inhibition was -9.15%.

For `CNNC`, the growth inhibition was -5.02%.

On to `O=C1C=CC(=O)c2c(O)cccc21`, for which the growth inhibition is -16.5%.

For `CC1(C)C2(Cl)C(Cl)C(Cl)C(Cl)(C(Cl)Cl)C1(Cl)C2Cl` (centres undefined), the growth inhibition was -1.8%.

Turning to `COc1ccc2c(c1)[C@]13CCCC[C@@H]1[C@H](C2)N(C)CC3`, the growth inhibition was -2.31%.

With `CCC(C)C(=O)c1c(O)c(C)c2oc3c(C)c(O)c(C(=O)C(C)CC)c(O)c3c2c1O` (centres undefined), the growth inhibition is -0.0293%.

On to `C[C@H]1O[C@@H](O[C@H]2[C@@H](O)C[C@H](O[C@H]3[C@@H](O)C[C@H](O[C@H]4CC[C@@]5(C)[C@H](CC[C@@H]6[C@@H]5CC[C@]5(C)[C@@H](C7=CC(=O)OC7)[C@@H](O)C[C@]65O)C4)O[C@@H]3C)O[C@@H]2C)C[C@H](O)[C@@H]1O`, for which the growth inhibition was -3.64%.

As to `CC1=NCCc2c1[nH]c1cc(O)ccc21`, the growth inhibition was -21%.

In the case of `CSc1nc(NC(C)C)nc(NC(C)C)n1`, the growth inhibition is -4.7%.

For the molecule `COc1ccc([C@H]2Oc3c(I)c(OC)cc(OC)c3C[C@@H]2O)cc1OC`, the growth inhibition was -0.865%.

As for `CC1=CC(=O)C2=C(C)C[C@H](O)[C@@H]3[C@H](OC(=O)[C@H]3C)[C@H]12`, the growth inhibition is -5.91%.

Take `CNC(=O)ON=C(C)SC`: the growth inhibition is -8.35%.

Consider `COc1cc(OC)c2c(c1)O[C@H](c1ccc(OC)c(OC)c1)[C@@H](O)C2`, for which the growth inhibition was determined as 1.02%.

Regarding `OC[C@@H]1CCCN2CCCC[C@H]12`, the growth inhibition is -7.06%.

As to `C1CCc2nnnn2CC1`, the growth inhibition is -13.7%.

Consider `C=C[C@H]1CN2CC[C@H]1C[C@@H]2[C@@H](O)c1ccnc2ccccc12`, for which the growth inhibition is -6.89%.

On to `CC(Cc1ccc(O)cc1)NCC(O)c1cc(O)cc(O)c1` (centres undefined), for which the growth inhibition is -6.39%.

Take `CC(C)CC(N(C)C)C1(c2ccc(Cl)cc2)CCC1` (centres undefined): the growth inhibition is -25.1%.

Turning to `COc1ccc(CC2c3cc(OC)c(OC)cc3CCN2C)cc1OC` (centres undefined), the growth inhibition was -5.63%.

Turning to `N#C/C(=C\c1cccc(O)c1)C(=O)O` [alpha-CYANO-3-HYDROXYCINNAMIC ACID], the growth inhibition was -24.9%.

On to `O=C([O-])c1ccccc1-c1c2cc(Br)c(=O)cc-2oc2[c]([Hg+])c([O-])c(Br)cc12.[Na+].[Na+].[OH-]`, for which the growth inhibition turned out to be 70.1%.

`O=c1[nH]c2ccccc2n1CCCN1CCC(n2c(=O)[nH]c3cc(Cl)ccc32)CC1`: the growth inhibition is -8.52%.

Take `CC(=O)O[C@@H]1C[C@@]2(C)[C@H](c3ccoc3)C[C@H]3O[C@]32[C@]2(C)C(=O)C(O)=C3C(C)(C)C(=O)C=C[C@]3(C)[C@@H]12`: the growth inhibition is -25%.

On to `COP(=S)(OC)Oc1ccc(SC)c(C)c1`, for which the growth inhibition is -10.2%.

As for `COP(=S)(OC)SCn1nnc2ccccc2c1=O`, the growth inhibition is -20.4%.

Turning to `C#C[C@]1(O)CC[C@H]2[C@@H]3CCC4=CC(=O)CC[C@]4(C)[C@H]3CC[C@@]21C`, the growth inhibition is -12.5%.

Consider `CC(C)[N+](C)(CCC(C(N)=O)(c1ccccc1)c1ccccc1)C(C)C`, for which the growth inhibition was 2.38%.

With `COC(=O)COc1ccc(Cl)cc1Cl`, the growth inhibition is -7.9%.

Regarding `C[C@]12CC[C@H]3[C@@H](CC[C@]4(O)C[C@@H](O)CC[C@]34C=O)[C@@]1(O)CC[C@@H]2C1=CC(=O)OC1`, the growth inhibition stood at 6.3%.

For the molecule `NC(N)=NOCC[C@H](N)C(=O)O`, the growth inhibition was -13.7%.

On to `C[C@]12CC[C@H](O)C[C@@H]1CC[C@@H]1[C@@H]2CC[C@]2(C)[C@@H](O)CC[C@@H]12` [5alpha-ANDROSTAN-3beta,17beta-DIOL], for which the growth inhibition worked out at 2.34%.

Consider `CC[C@H](C)[C@H]1O[C@]2(C=C[C@@H]1C)C[C@@H]1C[C@@H](C/C=C(\C)[C@@H](O[C@H]3C[C@H](OC)[C@@H](O[C@H]4C[C@H](OC)[C@@H](O)[C@H](C)O4)[C@H](C)O3)[C@@H](C)/C=C/C=C3\CO[C@@H]4[C@H](O)C(C)=C[C@@H](C(=O)O1)[C@]34O)O2.CO[C@H]1C[C@H](O[C@H]2[C@H](C)O[C@@H](O[C@@H]3/C(C)=C/C[C@@H]4C[C@@H](C[C@]5(C=C[C@H](C)[C@@H](C(C)C)O5)O4)OC(=O)[C@@H]4C=C(C)[C@@H](O)[C@H]5OC/C(=C\C=C\[C@@H]3C)[C@]54O)C[C@@H]2OC)O[C@@H](C)[C@@H]1O`, for which the growth inhibition was -4.76%.

`COc1cc([C@@H]2c3cc4c(cc3[C@H](OC(C)=O)[C@H]3COC(=O)[C@H]23)OCO4)cc(OC)c1OC`: the growth inhibition is -3.15%.

`O=C(O)CNCP(=O)(O)O`: the growth inhibition is -3.93%.

With `CCCCOC(=O)c1ccccc1C(=O)OCc1ccccc1`, the growth inhibition was found to be 9.93%.

In the case of `CC[C@@]1(O)C[C@H](O)c2c(cc3c(c2O)C(=O)c2c(O)ccc(O)c2C3=O)[C@H]1C(=O)OC`, the growth inhibition is -8.7%.

For `O=C(O)CCCc1ccc(N(CCCl)CCCl)cc1`, the growth inhibition was -3.41%.

As to `COc1ccc(C(=O)N2CCCC2=O)cc1`, the growth inhibition was -5.91%.

Take `COc1nc(NC(C)C)nc(NC(C)C)n1`: the growth inhibition is -8.96%.

Turning to `NCCc1cccc(O)c1`, the growth inhibition is -14.9%.

Turning to `Oc1noc2c1CCNC2`, the growth inhibition was -9.36%.

Take `Cc1c(O)c(C(=O)CC(C)C)c2oc3c(C(=O)CC(C)C)c(O)c(C)c(O)c3c2c1O`: the growth inhibition is -12.6%.

With `CCCC(C)C1(CC)C(=O)NC(=S)NC1=O` (centres undefined), the growth inhibition is -14.9%.

Regarding `COc1cc([C@@H]2c3cc4c(cc3[C@H](O)[C@H]3COC(=O)[C@@H]23)OCO4)cc(OC)c1OC`, the growth inhibition worked out at 10.5%.

For `ClC1=C(Cl)C2(Cl)C3C(Cl)C=CC3C1(Cl)C2(Cl)Cl` (centres undefined), the growth inhibition was -3.63%.

Consider `CC(=O)C1=C(O)[C@@H]2[C@H]3c4c[nH]c5cccc(c45)C[C@H]3C(C)(C)N2C1=O`, for which the growth inhibition was -12.9%.

Turning to `N#Cc1c(Cl)cccc1Cl`, the growth inhibition is -8.2%.

On to `CC(C)=CC1C(C(=O)OCc2cccc(Oc3ccccc3)c2)C1(C)C` (centres undefined), for which the growth inhibition is 9.02%.

As for `C[CH2][Hg][S]c1ccccc1C(=O)[O-].[Na+]`, the growth inhibition turned out to be 90.1%.

For the molecule `CC1(C)C(=O)C=C[C@]2(C)[C@H]3CC[C@@]4(C)[C@H](c5ccoc5)OC(=O)[C@H]5O[C@]54[C@]3(C)[C@H](O)C[C@@H]12`, the growth inhibition came out at 1.89%.

In the case of `COc1c2c(cc3c1OCO3)[C@]13C=C[C@H](OC)C[C@H]1N(C2)C[C@@H]3O`, the growth inhibition is -9.49%.

As for `CC[C@@]1(O)C(=O)OCc2c1cc1n(c2=O)Cc2cc3ccccc3nc2-1`, the growth inhibition was -3%.

Regarding `O=C1C[C@@H]2OCC=C3CN4CC[C@]56c7ccccc7N1[C@H]5[C@H]2[C@H]3C[C@H]46`, the growth inhibition was -17.9%.

As to `COc1ccc2c(c1OC)C(=O)OC2[C@H]1c2cc3c(cc2CCN1C)OCO3` (stereo in doubt), the growth inhibition is -30.4%.

As for `CC1(C)C(=O)C=CC2(C)C3CCC4(C)C(c5ccoc5)CC5OC54C3C(O)CC12` (centres undefined), the growth inhibition is -12.6%.

For `C#CCOS(=O)OC1CCCCC1Oc1ccc(C(C)(C)C)cc1` (centres undefined), the growth inhibition was -5.76%.

In the case of `CC(C)=CCC[C@]1(C)C=Cc2c(O)c3c(c(CC=C(C)C)c2O1)O[C@]12C(=C[C@@H]4C[C@H]1C(C)(C)O[C@@]2(C/C=C(/C)C(=O)O)C4=O)C3=O`, the growth inhibition was -6.59%.

Turning to `C[C@]12CCC3C(CC[C@H]4C[C@H](OS(=O)(=O)O)CC[C@]34C)C1CCC2=O` (some centres undefined), the growth inhibition was -22.3%.

For `C=C(C)c1cc2cc(C(C)=O)c(O)cc2o1`, the growth inhibition was -23.3%.

Consider `CC(C)OC(=O)Nc1cccc(Cl)c1`, for which the growth inhibition is -8.35%.

Regarding `CN1C[C@H](C(=O)N[C@]2(C)O[C@@]3(O)[C@@H]4CCCN4C(=O)[C@H](Cc4ccccc4)N3C2=O)C[C@@H]2c3cccc4[nH]cc(c34)C[C@H]21`, the growth inhibition was -0.422%.
